Data on three molecules can be found in paper doi:10.1101/2025.05.06.652320.

By UniProt entry, the sequences of proteins in these tests, tags left out. Residues count along the entry.
UniProt Q13526: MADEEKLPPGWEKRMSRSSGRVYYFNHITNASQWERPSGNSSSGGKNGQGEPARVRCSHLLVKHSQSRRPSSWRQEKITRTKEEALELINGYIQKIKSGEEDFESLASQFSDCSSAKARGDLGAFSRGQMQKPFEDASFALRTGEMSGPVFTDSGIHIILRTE
UniProt P13612, residues 34-1032: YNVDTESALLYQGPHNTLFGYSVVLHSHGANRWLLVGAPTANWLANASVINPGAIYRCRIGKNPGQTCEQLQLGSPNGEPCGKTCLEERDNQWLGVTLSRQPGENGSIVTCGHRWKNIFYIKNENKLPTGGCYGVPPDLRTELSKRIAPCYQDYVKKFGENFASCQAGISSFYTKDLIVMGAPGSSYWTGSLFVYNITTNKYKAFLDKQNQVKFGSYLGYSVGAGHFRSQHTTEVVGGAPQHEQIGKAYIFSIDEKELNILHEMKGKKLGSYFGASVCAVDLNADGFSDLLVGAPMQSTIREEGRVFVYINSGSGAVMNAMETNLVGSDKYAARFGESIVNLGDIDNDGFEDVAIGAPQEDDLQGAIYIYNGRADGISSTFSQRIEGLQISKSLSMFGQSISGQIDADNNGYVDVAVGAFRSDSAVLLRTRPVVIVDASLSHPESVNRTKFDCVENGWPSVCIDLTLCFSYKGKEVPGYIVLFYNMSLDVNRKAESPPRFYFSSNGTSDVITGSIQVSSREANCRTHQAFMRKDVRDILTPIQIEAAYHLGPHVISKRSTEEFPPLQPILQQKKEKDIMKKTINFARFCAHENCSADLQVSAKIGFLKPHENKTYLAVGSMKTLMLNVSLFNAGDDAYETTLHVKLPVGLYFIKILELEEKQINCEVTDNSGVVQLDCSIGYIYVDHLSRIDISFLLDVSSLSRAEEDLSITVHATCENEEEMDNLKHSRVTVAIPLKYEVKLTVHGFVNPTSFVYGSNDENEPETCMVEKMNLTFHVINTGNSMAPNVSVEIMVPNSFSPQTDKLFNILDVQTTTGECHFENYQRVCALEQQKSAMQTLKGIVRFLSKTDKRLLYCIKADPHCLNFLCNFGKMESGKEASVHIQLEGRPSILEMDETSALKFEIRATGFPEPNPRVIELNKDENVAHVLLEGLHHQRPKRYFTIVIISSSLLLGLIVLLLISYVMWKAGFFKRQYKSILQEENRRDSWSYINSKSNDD

Like-named read-outs stand apart in the source and are kept apart here. No constants are given. Whether binding was seen depends on the method and setting. In cells and extracts the contact can be indirect. A yes stands for co-enrichment or nearness to the bait. Other partners may have been found.

The target of experiment [1] is endogenous PIN1 with a Twin-Strep-tag inserted at the native PIN1 locus (human (endogenous in HEK293T)) (UniProt Q13526). The experiment can be described thus: proximity labelling.
For experiment [2] the target is unchanged. The experiment is described as follows: proximity labelling. This is another data set of the same source.

Turning to ITGA4 (from UniProt P13612 34-1032), in experiment [1], the binding entry is on record as “binds”.

B1: RFC1 (protein, UniProt P35251 1-1148)
chain: MDIRKFFGVIPSGKKLVSETVKKNEKTKSDEETLKAKKGIKEIKVNSSRKEDDFKQKQPSKKKRIIYDSDSESEETLQVKNAKKPPEKLPVSSKPGKISRQDPVTYISETDEEDDFMCKKAASKSKENGRSTNSHLGTSNMKKNEENTKTKNKPLSPIKLTPTSVLDYFGTGSVQRSNKKMVASKRKELSQNTDESGLNDEAIAKQLQLDEDAELERQLHEDEEFARTLAMLDEEPKTKKARKDTEAGETFSSVQANLSKAEKHKYPHKVKTAQVSDERKSYSPRKQSKYESSKESQQHSKSSADKIGEVSSPKASSKLAIMKRKEESSYKEIEPVASKRKENAIKLKGETKTPKKTKSSPAKKESVSPEDSEKKRTNYQAYRSYLNREGPKALGSKEIPKGAENCLEGLIFVITGVLESIERDEAKSLIERYGGKVTGNVSKKTNYLVMGRDSGQSKSDKAAALGTKIIDEDGLLNLIRTMPGKKSKYEIAVETEMKKESKLERTPQKNVQGKRKISPSKKESESKKSRPTSKRDSLAKTIKKETDVFWKSLDFKEQVAEETSGDSKARNLADDSSENKVENLLWVDKYKPTSLKTIIGQQGDQSCANKLLRWLRNWQKSSSEDKKHAAKFGKFSGKDDGSSFKAALLSGPPGVGKTTTASLVCQELGYSYVELNASDTRSKSSLKAIVAESLNNTSIKGFYSNGAASSVSTKHALIMDEVDGMAGNEDRGGIQELIGLIKHTKIPIICMCNDRNHPKIRSLVHYCFDLRFQRPRVEQIKGAMMSIAFKEGLKIPPPAMNEIILGANQDIRQVLHNLSMWCARSKALTYDQAKADSHRAKKDIKMGPFDVARKVFAAGEETAHMSLVDKSDLFFHDYSIAPLFVQENYIHVKPVAAGGDMKKHLMLLSRAADSICDGDLVDSQIRSKQNWSLLPAQAIYASVLPGELMRGYMTQFPTFPSWLGKHSSTGKHDRIVQDLALHMSLRTYSSKRTVNMDYLSLLRDALVQPLTSQGVDGVQDVVALMDTYYLMKEDFENIMEISSWGGKPSPFSKLDPKVKAAFTRAYNKEAHLTPYSLQAIKASRHSTSPSLDSEYNEELNEDDSQSDEKDQDAIETDAMIKKKTKSSKPSKPEKDKEPRKGKGKSSKK
For B1, the binding entry in experiment [2] is given as “binds”.

B2: MNAT (protein, UniProt P51948 1-309)
chain: MDDQGCPRCKTTKYRNPSLKLMVNVCGHTLCESCVDLLFVRGAGNCPECGTPLRKSNFRVQLFEDPTVDKEVEIRKKVLKIYNKREEDFPSLREYNDFLEEVEEIVFNLTNNVDLDNTKKKMEIYQKENKDVIQKNKLKLTREQEELEEALEVERQENEQRRLFIQKEEQLQQILKRKNKQAFLDELESSDLPVALLLAQHKDRSTQLEMQLEKPKPVKPVTFSTGIKMGQHISLAPIHKLEEALYEYQPLQIETYGPHVPELEMLGRLGYLNHVRAASPQDLAGGYTSSLACHRALQDAFSGLFWQPS
Consider B2, for which, in experiment [2], the binding entry is recorded as “binds”.
